The subject of data set [1] is HLA-transduced SLC45A2+ melanoma cell line Mel888. As to the kind of experiment: HLA immunoprecipitation and tandem mass spectrometry of parental and HLA-transduced Mel888 cells (natural processing and presentation). Set-up: species or system human. Particulars: — = peptide not detected. Here is the method: (§1) Tumor-associated peptides were directly eluted from HLA class I molecules isolated from fresh tumor tissue specimens or tumor cell lines. Tumor specimens (˜250 mg) were sliced into small pieces and digested in an enzymatic cocktail buffer in serum-free RPMI1640 medium until complete digestion, then washed and tumor cells lysed and supernatant collected. After measuring the protein concentration, tumor cell lysates were incubated with W6/32 antibody (specific for HLA-A, -B, and -C) then purified using resin beads. HLA class I-bound peptides were eluted and the presence of HLA was confirmed by Western Blot analysis. Positive elute fractions were analyzed by mass spectrometry, as described below.
(§2) For discovery phase tandem mass spectrometry (MS/MS), eluted MHC class I-bound peptides were injected onto a high-sensitivity HPLC system (Dionex 3000 RSLC), separated by reversed-phase chromatography in 0.1% formic acid water-acetonitrile on 1.8 micron C18 (Agilent Technologies) and analyzed on an Orbitrap Elite mass spectrometer (Thermo Scientific) using data-dependent acquisition. The Mascot algorithm searched acquired MS/MS spectra against the SwissProt complete human protein database using 10 ppm parent mass tolerance, 0.8 d fragment ion tolerance, Met oxidation, no enzyme selectivity. Search results were cross-referenced with the appropriate MHC-binding specificities using NetMHC 3.4 [101].
(§3) Several MDACC patient-derived melanoma cell lines and fresh melanoma tumor specimens were analyzed for surface HLA class I bound peptides using immunoprecipitation of HLA-A,B,C, acid elution, and tandem mass spectrometry (MS/MS). […] Additional evidence of these peptides being naturally processed and presented is shown in Table 5: Mel888 melanoma cells were transduced with lentiviral vectors to express either HLA-A*0201, A*2402, or A*0301. Immunopeptidome analysis was performed on parental and transduced Mel888 cells as described above. In this way, 5 of the 6 peptides identified in Table 4 were also detected in the transduced cells, but only if they expressed the appropriate HLA allele (Table 5 and FIG. 2). As shown, novel SLC45A2382-390 ([…]; SEQ ID NO:1) and SLC45A2393-402 ([…], SEQ ID NO:2) peptides were confirmed by elution from Mel888 transduced with HLA A*0201 or A*2402 using MS analysis.

The test system of data set [2] is melanoma cell lines. The data set is described as follows: Mass spectrometric detection of HLA class I bound peptides in melanoma cell lines and tumor specimens. Also on record: species or system human. Particulars: HLA-A,B,C immunoprecipitation, acid elution, MS/MS. Here is the method: as §1, §2, §3

“ALIANPRRK [SLC45A2-derived peptide, position 129-137, A*0301]”: the “Ion score of the detected peptide” value in data set [1] (Mel888 A*0301) worked out at 24. For the same sequence, the “Number of melanomas in which peptide was detected” value (from here on “Number of melanomas”) in data set [2] is listed as 2.

As for “RLLGTEFQV [SLC45A2-derived peptide, position 209-217, A*0201]”, in data set [1] (Mel888 A*0201), the “Ion score of the detected peptide” value is 27. For the same sequence, in data set [2], the “Number of melanomas” value amounted to 8.

As for “SGQAGRHIY [SLC45A2-derived peptide, position 5-13, A*3002]”, in data set [2], the “Number of melanomas” value is 2.

Consider “SLYSYFQKV [HLA-A*0201 restricted SLC45A2-derived peptide, position 382-390]”, for which the “Ion score of the detected peptide” value in data set [1] (Mel888 A*0201) came out at 20. Besides, the “Number of melanomas” value in data set [2] turned out to be 6.

Consider “SYIGLKGLYF [HLA-A*2402 restricted SLC45A2-derived peptide, position 393-402]”, for which the “Ion score of the detected peptide” value in data set [1] (Mel888 A*0201) is on record as 23; in data set [1] (Mel888 A*0301), 31; in data set [1] (Mel888 A*1101) it was 34; in data set [1] (Mel888 A*2402), 61; in data set [1] (Mel888 PARENTAL), 34. The “Number of melanomas” value in data set [2] was 3.

For “VWFLSPILGF [SLC45A2-derived peptide, position 73-82, A*2402]”, the “Ion score of the detected peptide” value in data set [1] (Mel888 A*2402) amounted to 17. The “Number of melanomas” value in data set [2] stood at 2.

For the origin of these results see US20210170002A1, “SLC45A2 PEPTIDES FOR IMMUNOTHERAPY” (Board of Regents, The University of Texas System, priority 2015, published 2021).
